# Reference: the supplement of paper PMC8728848
# The other results are listed elsewhere or left out.
# B1: Protein L(B1-B4) (Finegoldia magna), Q51912 (protein)
# chain: KEETPETPETDSEEEVTIKANLIFANGSTQTAEFKGTFEKATSEAYAYADTLKKDNGEYTVDVADKGYTLNIKFAGKEKTPEEPKEEVTIKANLIYADGKTQTAEFKGTFEEATAEAYRYADALKKDNGEYTVDVADKGYTLNIKFAGKEKTPEEPKEEVTIKANLIYADGKTQTAEFKGTFEEATAEAYRYADLLAKENGKYTVDVADKGYTLNIKFAGKEKTPEEPKEEVTIKANLIYADGKTQTAEFKGTFAEATAEAYRYADLLAKENGKYTADLEDGGYTINIRFAG
# What was measured:
# Test in all cases: glycan array binding signal (z-score within array); higher = stronger binding
# Details in all cases: glycan notation: IUPAC condensed, linker removed
# [1] = biological target: Neu5Ac(a2-6)Gal(b1-4)GlcNAc(b1-2)Man(a1-6)[Man(a1-3)]Man(b1-4)GlcNAc(b1-4)GlcNAc
# Method in brief: (§1)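 Columns mapping to the same glycan were averaged after glycan names were converted to IUPAC-condensed notation. The data come from 3228 arrays in the Consortium for Functional Glycomics database, limited to those with an available protein sequence. Binding is reported as a within-array Z-score averaged across arrays of one protein sequence and across linkers.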
# [2] = biological target: Neu5Ac(a2-6)Gal(b1-4)GlcNAc(b1-2)[Neu5Ac(a2-6)Gal(b1-4)GlcNAc(b1-4)]Man(a1-3)[GlcNAc(b1-4)][Neu5Ac(a2-6)Gal(b1-4)GlcNAc(b1-2)[Neu5Ac(a2-6)Gal(b1-4)GlcNAc(b1-6)]Man(a1-6)]Man(b1-4)GlcNAc(b1-4)GlcNAc
# Method in brief: as §1
# [3] = biological target: Neu5Ac(a2-6)Gal(b1-4)GlcNAc(b1-2)[Neu5Ac(a2-6)Gal(b1-4)GlcNAc(b1-4)]Man(a1-3)[GlcNAc(b1-4)][Neu5Ac(a2-6)Gal(b1-4)GlcNAc(b1-4)Man(a1-6)]Man(b1-4)GlcNAc(b1-4)GlcNAc
# Method in brief: as §1
# [4] = biological target: Neu5Ac(a2-6)Gal(b1-4)GlcNAc(b1-2)[Neu5Ac(a2-6)Gal(b1-4)GlcNAc(b1-6)]Man(a1-6)[Neu5Ac(a2-6)Gal(b1-4)GlcNAc(b1-2)Man(a1-3)][GlcNAc(b1-4)]Man(b1-4)GlcNAc(b1-4)GlcNAc
# Method in brief: as §1
# [5] = biological target: Neu5Ac(a2-6)Gal(b1-4)GlcNAc(b1-3)Gal(b1-3)GlcNAc
# Method in brief: as §1
# [6] = biological target: Neu5Ac(a2-6)Gal(b1-4)GlcNAc(b1-3)Gal(b1-4)GlcNAc
# Method in brief: as §1
# [7] = biological target: Neu5Ac(a2-6)Gal(b1-4)GlcNAc(b1-3)Gal(b1-4)GlcNAc(b1-2)Man(a1-3)[Neu5Ac(a2-6)Gal(b1-4)GlcNAc(b1-3)Gal(b1-4)GlcNAc(b1-2)Man(a1-6)]GalNAc
# Method in brief: as §1
# [8] = biological target: Neu5Ac(a2-6)Gal(b1-4)GlcNAc(b1-3)Gal(b1-4)GlcNAc(b1-3)Gal(b1-4)GlcNAc
# Method in brief: as §1
# [9] = biological target: Neu5Ac(a2-6)Gal(b1-4)GlcNAc(b1-3)Gal(b1-4)GlcNAc(b1-3)Gal(b1-4)GlcNAc(b1-2)Man(a1-3)[Neu5Ac(a2-6)Gal(b1-4)GlcNAc(b1-3)Gal(b1-4)GlcNAc(b1-3)Gal(b1-4)GlcNAc(b1-2)Man(a1-6)]GalNAc
# Method in brief: as §1
# [10] = biological target: Neu5Ac(a2-6)Gal(b1-4)GlcNAc(b1-3)Gal(b1-4)GlcNAc(b1-3)GalNAc
# Method in brief: as §1
# [11] = biological target: Neu5Ac(a2-6)Gal(b1-4)GlcNAc(b1-3)Gal(b1-4)GlcNAc(b1-3)[Neu5Ac(a2-6)Gal(b1-4)GlcNAc(b1-3)Gal(b1-4)GlcNAc(b1-6)]GalNAc
# Method in brief: as §1
# [12] = biological target: Neu5Ac(a2-6)Gal(b1-4)GlcNAc(b1-3)Gal(b1-4)GlcNAc(b1-6)[Gal(b1-3)]GalNAc
# Method in brief: as §1
# [13] = biological target: Neu5Ac(a2-6)Gal(b1-4)GlcNAc(b1-3)Gal(b1-4)[Fuc(a1-3)]GlcNAc(b1-3)Gal(b1-4)[Fuc(a1-3)]GlcNAc
# Method in brief: as §1
# [14] = biological target: Neu5Ac(a2-6)Gal(b1-4)GlcNAc(b1-3)GalNAc
# Method in brief: as §1
# [15] = biological target: Neu5Ac(a2-6)Gal(b1-4)GlcNAc(b1-3)[Neu5Ac(a2-6)Gal(b1-4)GlcNAc(b1-6)]GalNAc
# Method in brief: as §1
# [16] = biological target: Neu5Ac(a2-6)Gal(b1-4)GlcNAc(b1-6)GalNAc
# Method in brief: as §1
# [17] = biological target: Neu5Ac(a2-6)Gal(b1-4)GlcNAc(b1-6)[Gal(b1-3)GlcNAc(b1-3)]Gal(b1-4)Glc
# Method in brief: as §1
# [18] = biological target: Neu5Ac(a2-6)Gal(b1-4)GlcNAc(b1-6)[Gal(b1-3)]GalNAc
# Method in brief: as §1
# [19] = biological target: Neu5Ac(a2-6)Gal(b1-4)GlcNAc6S
# Method in brief: as §1
# Neu5Ac(a2-6)GalNAc = biological target: Neu5Ac(a2-6)GalNAc
# Method in brief: as §1
# [20] = biological target: Neu5Ac(a2-6)GalNAc(b1-4)GlcNAc
# Method in brief: as §1
# [21] = biological target: Neu5Ac(a2-6)GalNAc(b1-4)GlcNAc6S
# Method in brief: as §1
# [22] = biological target: Neu5Ac(a2-6)GlcNAc(b1-4)GlcNAc
# Method in brief: as §1
binder,measurement,setting,value
B1,glycan array binding signal (z-score),[1],-0.244
same,glycan array binding signal (z-score),[2],0.21
same,glycan array binding signal (z-score),[3],-0.109
same,glycan array binding signal (z-score),[4],-0.486
same,glycan array binding signal (z-score),[5],-0.883
same,glycan array binding signal (z-score),[6],-0.506
same,glycan array binding signal (z-score),[7],-0.472
same,glycan array binding signal (z-score),[8],-0.265
same,glycan array binding signal (z-score),[9],3.91
same,glycan array binding signal (z-score),[10],-0.256
same,glycan array binding signal (z-score),[11],2.86
same,glycan array binding signal (z-score),[12],0.095
same,glycan array binding signal (z-score),[13],1.49
same,glycan array binding signal (z-score),[14],0.664
same,glycan array binding signal (z-score),[15],0.586
same,glycan array binding signal (z-score),[16],3.08
same,glycan array binding signal (z-score),[17],-0.606
same,glycan array binding signal (z-score),[18],0.784
same,glycan array binding signal (z-score),[19],-1.16
same,glycan array binding signal (z-score),Neu5Ac(a2-6)GalNAc,-0.807
same,glycan array binding signal (z-score),[20],-0.471
same,glycan array binding signal (z-score),[21],-0.425
same,glycan array binding signal (z-score),[22],-0.932

# Nothing new here: entries from further up.
binder,measurement,setting,value
B1,glycan array binding signal (z-score),[6],-0.506
same,glycan array binding signal (z-score),[7],-0.472
